Patent US6409648, “Polynucleotides encoding TRF1 binding proteins” (The Regents of the University of California)
For part of these data: Where cells or extracts were used, other partners may take part. For part of these data: Where a protein sequence is shown, tags need not be part of it. For part of these data: The exact form of at least one protein or probe is not confirmed. For part of these data: No signal at the amounts used counts as a negative.

How the values were obtained:
Assay in all cases: EMSA
6his-Tin2 (human) = target: T1, 6his-Tin2 (human) (UniProt Q9BSI4); details: purified recombinant protein, protein details: 6his, baculovirus/Sf9
T1 sequence: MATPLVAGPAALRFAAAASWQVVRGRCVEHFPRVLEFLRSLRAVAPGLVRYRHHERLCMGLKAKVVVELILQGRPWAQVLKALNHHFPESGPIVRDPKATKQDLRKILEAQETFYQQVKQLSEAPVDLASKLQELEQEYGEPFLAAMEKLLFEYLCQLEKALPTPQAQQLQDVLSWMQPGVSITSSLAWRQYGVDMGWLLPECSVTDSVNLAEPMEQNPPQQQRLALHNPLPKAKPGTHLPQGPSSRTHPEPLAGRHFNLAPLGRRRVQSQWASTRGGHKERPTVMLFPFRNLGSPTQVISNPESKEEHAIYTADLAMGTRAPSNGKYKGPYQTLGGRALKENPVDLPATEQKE

[1] = system: Trf1 + GST-Tin2 complex (human); details: TT shifted to TT-AA and TT-AAX; protein in an extract; protein details: HA-Trf1 nuclear extract, N-terminal GST on Tin2
[2] = target: T2, Tin2 (in vitro translated) (human) (UniProt Q9BSI4); details: Tin2 alone; protein translated in vitro; protein details: N-terminal c-Myc epitope (13 aa)
T2 sequence: T1 sequence

[3] = target: T3, Trf1 (HA-Trf1, nuclear extract) (human) (UniProt P54274); details: complex TT, Trf1 homodimer; protein in an extract
T3 sequence (looked up, limits assumed): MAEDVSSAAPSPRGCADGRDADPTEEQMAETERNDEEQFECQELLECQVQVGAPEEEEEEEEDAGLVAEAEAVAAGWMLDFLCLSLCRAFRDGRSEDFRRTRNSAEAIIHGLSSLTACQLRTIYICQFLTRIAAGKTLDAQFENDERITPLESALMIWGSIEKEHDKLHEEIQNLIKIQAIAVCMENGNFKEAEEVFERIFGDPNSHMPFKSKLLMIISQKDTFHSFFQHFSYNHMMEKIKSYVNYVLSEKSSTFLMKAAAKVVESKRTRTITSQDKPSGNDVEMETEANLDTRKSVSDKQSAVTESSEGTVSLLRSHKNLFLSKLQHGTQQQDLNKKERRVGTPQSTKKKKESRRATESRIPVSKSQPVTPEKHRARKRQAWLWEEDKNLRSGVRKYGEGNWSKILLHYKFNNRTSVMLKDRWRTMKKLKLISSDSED

[4] = system: Trf1 + GST-Tin2-13 complex (human); details: TT shifted to TT-A and TT-AA; protein in an extract; protein details: HA-Trf1 nuclear extract, N-terminal GST on Tin2-13
[5] = system: Trf1 + GST-Tin2-14 complex (human); details: TT shifted to TT-A and TT-AA, less efficient than Tin2-13; some TT-AAX; protein in an extract; protein details: HA-Trf1 nuclear extract, N-terminal GST on Tin2-14
GST-Tin2 (human) = target: T4, GST-Tin2 (human) (UniProt Q9BSI4); details: Tin2 alone; purified recombinant protein; protein details: N-terminal GST, E. coli
T4 sequence: T1 sequence

[6] = system: Trf1 + GST-Tin2-12 complex (human); details: TT shifted to TT-A and TT-AA, less efficient than Tin2-13; protein in an extract; protein details: HA-Trf1 nuclear extract, N-terminal GST on Tin2-12

Sequence	binding result (6his-Tin2 (human); no complex with Tin2 alone, label: 32P (6X-Tel), 5' biotin (Bi-6X-Tel), only the site is given)	binding result [1]	binding result [2]	binding result [3]	binding result [4]	binding result [5]	binding result (GST-Tin2 (human))	binding result [6]	binding result (6his-Tin2 (human); Tin2 alone)
TTAGGGTTAGGGTTAGGGTTAGGGTTAGGGTTAGGG (double strand)	no binding								
TTAGGGTTAGGGTTAGGGTTAGGGTTAGGGTTAGGGTTAGGGTTAGGGTTAGGGTTAGGGTTAGGGTTAGGGTTAGGG (double strand) [[TTAGGG]13 double-stranded telomeric probe]		binds	no binding	binds	binds	binds	no binding	binds	no binding
